Results as given in patent publication US20040072170A1.
Results are given in words; binding and its absence hold for the method and conditions named. Some results given as binding are weak or reduced against the parent protein; the word gives no strength.

Amino acid sequences for entries named in this document (tags omitted). A change or cut given only in a name is not applied to a line headed by its entry.
UniProt O75400: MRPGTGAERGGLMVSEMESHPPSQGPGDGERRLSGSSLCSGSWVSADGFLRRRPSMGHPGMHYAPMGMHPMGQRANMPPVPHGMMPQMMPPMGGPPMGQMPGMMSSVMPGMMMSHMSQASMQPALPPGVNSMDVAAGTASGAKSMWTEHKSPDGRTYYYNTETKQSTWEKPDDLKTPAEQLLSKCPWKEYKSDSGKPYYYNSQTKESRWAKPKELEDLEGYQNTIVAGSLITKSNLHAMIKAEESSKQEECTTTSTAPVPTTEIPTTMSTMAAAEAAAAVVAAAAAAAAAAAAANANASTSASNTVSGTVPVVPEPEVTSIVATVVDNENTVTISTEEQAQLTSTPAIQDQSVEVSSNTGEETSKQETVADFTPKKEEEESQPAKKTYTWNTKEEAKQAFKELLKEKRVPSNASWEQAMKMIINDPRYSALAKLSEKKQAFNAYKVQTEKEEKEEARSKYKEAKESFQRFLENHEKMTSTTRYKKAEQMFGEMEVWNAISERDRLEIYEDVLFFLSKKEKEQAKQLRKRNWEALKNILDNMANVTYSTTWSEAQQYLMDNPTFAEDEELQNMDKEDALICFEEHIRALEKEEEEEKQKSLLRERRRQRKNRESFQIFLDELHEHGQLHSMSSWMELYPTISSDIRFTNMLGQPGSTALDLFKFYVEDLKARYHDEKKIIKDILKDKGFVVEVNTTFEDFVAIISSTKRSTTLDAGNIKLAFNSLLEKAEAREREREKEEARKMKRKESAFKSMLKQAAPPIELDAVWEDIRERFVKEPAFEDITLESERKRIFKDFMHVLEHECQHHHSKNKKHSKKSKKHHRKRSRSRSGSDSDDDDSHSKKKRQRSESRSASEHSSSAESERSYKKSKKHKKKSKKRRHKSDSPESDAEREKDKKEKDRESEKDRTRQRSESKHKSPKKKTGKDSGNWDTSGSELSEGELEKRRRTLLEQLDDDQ
UniProt P06732: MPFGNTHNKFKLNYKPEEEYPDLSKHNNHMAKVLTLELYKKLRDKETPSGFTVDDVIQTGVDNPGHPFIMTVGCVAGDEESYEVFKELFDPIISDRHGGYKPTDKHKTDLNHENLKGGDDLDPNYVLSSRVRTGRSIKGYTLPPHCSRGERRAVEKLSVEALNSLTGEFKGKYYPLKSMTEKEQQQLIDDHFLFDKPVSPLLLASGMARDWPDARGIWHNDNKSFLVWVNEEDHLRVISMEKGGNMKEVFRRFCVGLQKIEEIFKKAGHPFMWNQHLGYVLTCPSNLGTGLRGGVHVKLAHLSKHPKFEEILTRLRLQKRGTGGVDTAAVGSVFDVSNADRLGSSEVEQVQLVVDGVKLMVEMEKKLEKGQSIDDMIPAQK

Assays:
[1] = biological target: c-Raf (P04049) (UniProt P04049); assay: yeast two-hybrid 40K interaction matrix (mating, growth and β-galactosidase)
[2] = biological target: FBP (AF049528) (UniProt O75400); assay: as above

binding [1]: binds
binding [2]: binds
Substance: AAA52025, muscle isoform of creatine kinase (creatine kinase M) (from UniProt P06732 1-381) (enzyme)
